Data published in the supplement of paper PMC10849652.
This is one part of the list.

Chains of the proteins cited; added tags and fusions are not shown. Lines headed by an entry give the natural chain unless they say otherwise; changes in a name come on top.
UniProt Q9UJX4, whole entry, looked up: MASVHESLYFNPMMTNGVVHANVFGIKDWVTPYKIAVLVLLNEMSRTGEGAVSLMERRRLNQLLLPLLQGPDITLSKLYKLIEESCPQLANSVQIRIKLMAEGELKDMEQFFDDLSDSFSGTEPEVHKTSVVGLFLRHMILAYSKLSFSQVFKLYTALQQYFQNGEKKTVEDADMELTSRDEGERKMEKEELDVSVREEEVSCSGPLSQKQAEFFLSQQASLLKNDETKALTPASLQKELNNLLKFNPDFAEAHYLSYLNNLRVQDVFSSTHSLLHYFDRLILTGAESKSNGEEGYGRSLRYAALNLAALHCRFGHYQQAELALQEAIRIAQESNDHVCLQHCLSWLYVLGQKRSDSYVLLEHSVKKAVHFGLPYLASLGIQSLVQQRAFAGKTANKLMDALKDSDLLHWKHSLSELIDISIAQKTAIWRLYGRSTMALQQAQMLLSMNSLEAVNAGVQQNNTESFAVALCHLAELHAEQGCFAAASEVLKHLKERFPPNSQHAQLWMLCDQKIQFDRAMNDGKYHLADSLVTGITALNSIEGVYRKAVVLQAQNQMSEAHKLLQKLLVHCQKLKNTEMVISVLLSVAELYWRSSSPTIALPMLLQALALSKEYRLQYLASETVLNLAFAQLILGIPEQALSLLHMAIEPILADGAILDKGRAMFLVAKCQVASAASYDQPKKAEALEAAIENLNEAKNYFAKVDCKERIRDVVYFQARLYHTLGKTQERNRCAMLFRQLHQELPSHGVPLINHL
UniProt Q9Y4X0: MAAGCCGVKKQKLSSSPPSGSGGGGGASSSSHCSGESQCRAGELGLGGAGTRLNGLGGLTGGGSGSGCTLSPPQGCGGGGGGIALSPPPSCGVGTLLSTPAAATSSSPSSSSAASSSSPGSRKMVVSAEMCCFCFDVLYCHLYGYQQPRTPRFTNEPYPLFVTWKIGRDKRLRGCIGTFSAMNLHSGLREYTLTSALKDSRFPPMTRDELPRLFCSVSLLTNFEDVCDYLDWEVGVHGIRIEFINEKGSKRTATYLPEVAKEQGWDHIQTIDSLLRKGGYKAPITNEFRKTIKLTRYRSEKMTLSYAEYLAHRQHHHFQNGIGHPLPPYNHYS
UniProt P04083: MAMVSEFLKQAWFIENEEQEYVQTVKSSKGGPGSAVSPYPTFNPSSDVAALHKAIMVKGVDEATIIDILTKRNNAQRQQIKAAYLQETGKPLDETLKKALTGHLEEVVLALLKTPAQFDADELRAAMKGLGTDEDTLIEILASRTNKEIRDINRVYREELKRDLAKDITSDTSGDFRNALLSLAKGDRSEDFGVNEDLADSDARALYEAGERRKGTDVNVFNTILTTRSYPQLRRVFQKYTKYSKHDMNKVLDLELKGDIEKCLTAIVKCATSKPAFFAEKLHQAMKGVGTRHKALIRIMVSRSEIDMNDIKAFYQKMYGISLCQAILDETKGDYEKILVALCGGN
UniProt Q6ZTN6: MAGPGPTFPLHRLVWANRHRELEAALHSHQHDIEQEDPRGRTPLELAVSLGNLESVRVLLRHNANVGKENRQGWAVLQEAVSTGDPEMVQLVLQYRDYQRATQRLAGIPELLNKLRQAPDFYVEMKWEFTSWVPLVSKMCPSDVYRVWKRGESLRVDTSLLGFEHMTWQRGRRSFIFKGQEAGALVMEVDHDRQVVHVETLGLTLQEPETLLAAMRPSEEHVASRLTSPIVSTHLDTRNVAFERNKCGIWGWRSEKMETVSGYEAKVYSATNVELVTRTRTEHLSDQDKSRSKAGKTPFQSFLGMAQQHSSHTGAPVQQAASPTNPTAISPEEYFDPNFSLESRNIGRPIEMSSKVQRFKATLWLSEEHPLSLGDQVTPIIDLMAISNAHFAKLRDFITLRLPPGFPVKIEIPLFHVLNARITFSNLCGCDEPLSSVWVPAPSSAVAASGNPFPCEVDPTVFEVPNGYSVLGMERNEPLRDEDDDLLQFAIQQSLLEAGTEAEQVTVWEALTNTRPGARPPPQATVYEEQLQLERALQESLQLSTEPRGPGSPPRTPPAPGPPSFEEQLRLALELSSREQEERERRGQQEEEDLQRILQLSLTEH
UniProt Q9P2R3: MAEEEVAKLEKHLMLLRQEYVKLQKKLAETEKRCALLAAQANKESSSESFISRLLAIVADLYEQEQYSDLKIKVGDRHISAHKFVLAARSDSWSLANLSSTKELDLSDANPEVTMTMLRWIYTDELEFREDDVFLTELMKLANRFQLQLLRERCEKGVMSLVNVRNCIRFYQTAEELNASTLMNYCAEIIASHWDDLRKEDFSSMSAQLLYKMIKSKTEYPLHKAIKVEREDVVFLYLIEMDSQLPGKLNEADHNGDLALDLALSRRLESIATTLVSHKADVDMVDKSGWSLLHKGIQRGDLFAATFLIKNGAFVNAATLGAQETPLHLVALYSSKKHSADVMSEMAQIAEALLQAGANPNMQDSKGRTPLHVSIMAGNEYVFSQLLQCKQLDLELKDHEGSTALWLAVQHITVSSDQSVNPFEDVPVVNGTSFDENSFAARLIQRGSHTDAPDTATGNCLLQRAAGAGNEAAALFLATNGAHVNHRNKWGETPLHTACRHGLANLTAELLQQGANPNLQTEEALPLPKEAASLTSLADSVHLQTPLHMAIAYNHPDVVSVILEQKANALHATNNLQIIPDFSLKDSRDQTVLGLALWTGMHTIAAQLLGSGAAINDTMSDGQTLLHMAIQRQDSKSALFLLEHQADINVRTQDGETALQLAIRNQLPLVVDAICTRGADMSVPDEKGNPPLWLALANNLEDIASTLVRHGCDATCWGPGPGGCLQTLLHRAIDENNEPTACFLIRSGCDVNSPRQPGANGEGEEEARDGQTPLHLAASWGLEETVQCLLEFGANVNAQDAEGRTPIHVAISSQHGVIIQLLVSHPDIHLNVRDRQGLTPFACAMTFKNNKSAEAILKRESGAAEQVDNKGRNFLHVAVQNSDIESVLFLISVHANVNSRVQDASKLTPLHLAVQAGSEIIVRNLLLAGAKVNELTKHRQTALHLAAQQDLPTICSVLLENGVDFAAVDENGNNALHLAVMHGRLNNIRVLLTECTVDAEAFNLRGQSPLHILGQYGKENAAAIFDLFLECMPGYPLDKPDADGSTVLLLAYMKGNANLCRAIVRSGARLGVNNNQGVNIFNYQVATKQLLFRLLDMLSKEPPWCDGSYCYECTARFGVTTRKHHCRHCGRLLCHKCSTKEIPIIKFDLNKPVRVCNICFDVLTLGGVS
UniProt P12429: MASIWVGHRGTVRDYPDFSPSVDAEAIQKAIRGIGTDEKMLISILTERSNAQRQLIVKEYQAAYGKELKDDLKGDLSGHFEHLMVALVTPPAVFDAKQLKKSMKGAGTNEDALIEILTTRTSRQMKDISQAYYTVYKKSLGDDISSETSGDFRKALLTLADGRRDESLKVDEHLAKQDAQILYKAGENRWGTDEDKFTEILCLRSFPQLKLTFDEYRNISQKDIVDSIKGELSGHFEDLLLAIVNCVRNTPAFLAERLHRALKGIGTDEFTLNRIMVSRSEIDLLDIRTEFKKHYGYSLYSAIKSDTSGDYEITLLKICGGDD
UniProt P08133: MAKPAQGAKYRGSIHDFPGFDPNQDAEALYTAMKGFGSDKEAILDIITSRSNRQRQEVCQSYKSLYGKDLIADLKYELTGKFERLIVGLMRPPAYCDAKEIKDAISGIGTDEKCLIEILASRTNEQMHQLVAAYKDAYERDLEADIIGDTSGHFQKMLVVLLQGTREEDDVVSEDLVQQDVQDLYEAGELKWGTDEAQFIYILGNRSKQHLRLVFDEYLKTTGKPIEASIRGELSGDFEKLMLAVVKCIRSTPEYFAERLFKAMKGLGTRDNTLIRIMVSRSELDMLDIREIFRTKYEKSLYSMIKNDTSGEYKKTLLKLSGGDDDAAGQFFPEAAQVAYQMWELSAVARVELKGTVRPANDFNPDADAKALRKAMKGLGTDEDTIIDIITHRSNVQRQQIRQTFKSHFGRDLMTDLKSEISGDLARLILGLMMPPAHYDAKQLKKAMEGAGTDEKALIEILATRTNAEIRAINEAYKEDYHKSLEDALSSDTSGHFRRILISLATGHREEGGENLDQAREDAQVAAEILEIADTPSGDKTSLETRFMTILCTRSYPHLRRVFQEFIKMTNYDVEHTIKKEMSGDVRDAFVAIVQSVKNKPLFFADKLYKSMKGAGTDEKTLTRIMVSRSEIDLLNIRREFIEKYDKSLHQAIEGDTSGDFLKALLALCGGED
UniProt P04075: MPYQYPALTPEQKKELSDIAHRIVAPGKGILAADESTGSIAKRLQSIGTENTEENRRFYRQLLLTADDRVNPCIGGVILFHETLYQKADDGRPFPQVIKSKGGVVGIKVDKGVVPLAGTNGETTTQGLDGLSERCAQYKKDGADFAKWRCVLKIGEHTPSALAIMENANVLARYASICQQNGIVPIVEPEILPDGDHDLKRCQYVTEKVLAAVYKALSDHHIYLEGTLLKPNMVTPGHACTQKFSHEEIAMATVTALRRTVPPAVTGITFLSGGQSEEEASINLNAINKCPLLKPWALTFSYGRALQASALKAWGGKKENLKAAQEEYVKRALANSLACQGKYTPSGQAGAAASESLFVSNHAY
UniProt Q4KMQ2: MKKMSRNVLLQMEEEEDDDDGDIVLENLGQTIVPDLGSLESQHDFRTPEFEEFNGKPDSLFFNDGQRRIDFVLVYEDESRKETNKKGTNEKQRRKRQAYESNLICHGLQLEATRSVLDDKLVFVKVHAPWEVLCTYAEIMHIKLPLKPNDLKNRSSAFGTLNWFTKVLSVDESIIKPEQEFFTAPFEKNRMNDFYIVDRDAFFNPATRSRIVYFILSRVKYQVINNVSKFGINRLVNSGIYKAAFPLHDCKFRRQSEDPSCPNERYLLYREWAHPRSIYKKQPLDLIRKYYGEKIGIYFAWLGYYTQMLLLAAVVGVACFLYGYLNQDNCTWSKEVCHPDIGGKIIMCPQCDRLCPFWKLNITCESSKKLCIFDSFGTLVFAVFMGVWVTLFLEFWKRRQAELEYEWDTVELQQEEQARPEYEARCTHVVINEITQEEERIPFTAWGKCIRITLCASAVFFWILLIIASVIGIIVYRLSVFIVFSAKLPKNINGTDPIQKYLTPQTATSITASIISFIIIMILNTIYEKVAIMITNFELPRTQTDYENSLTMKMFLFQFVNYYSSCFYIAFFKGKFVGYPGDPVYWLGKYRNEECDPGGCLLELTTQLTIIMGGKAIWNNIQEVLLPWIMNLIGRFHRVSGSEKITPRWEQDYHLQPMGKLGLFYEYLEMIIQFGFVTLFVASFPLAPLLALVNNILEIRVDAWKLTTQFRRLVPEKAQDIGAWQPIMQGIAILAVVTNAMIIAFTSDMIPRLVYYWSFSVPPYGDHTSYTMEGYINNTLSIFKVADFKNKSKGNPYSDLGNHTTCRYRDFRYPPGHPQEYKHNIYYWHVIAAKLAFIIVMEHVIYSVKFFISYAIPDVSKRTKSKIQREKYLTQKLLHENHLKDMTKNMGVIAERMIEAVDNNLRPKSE
UniProt P56377: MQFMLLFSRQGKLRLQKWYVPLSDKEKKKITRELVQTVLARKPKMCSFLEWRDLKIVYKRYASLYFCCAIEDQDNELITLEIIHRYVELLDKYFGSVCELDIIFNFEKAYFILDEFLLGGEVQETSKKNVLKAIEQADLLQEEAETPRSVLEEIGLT
UniProt P50995, whole entry, looked up: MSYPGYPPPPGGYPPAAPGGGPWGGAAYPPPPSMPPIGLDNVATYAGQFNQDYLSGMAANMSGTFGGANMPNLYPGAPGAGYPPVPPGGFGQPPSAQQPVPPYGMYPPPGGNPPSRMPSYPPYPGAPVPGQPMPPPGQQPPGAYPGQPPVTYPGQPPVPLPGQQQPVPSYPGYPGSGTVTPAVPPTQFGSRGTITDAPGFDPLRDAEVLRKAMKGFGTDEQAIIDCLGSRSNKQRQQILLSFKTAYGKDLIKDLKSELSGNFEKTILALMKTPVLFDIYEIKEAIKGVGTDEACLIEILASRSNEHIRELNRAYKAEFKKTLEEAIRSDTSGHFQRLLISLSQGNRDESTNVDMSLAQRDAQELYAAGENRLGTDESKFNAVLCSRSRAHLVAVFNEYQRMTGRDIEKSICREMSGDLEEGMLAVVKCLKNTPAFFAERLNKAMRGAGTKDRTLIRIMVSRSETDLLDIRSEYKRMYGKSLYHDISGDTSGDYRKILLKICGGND
UniProt P09972: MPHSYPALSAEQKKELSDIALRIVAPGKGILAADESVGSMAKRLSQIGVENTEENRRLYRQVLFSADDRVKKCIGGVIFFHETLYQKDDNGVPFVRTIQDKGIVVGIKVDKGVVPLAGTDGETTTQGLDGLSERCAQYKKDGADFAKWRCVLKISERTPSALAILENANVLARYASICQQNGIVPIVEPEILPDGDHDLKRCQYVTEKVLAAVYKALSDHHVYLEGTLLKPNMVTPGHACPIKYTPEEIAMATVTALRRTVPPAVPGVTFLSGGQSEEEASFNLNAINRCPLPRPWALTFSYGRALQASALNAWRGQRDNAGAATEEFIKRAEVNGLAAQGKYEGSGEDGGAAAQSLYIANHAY

Columns and labels:
Experiment in all cases: log2 fold change, soluble protein after heating vs DMSO (PISA); higher = thermal stabilisation; K562 lysate, 10 uM; active = over 0.2 and 3.5 SD of the protein, either way, in both replicates (recomputed)
alvocidib = compound: CN1CC[C@H](c2c(O)cc(O)c3c(=O)cc(-c4ccccc4Cl)oc23)[C@H](O)C1 [alvocidib]
How it was run: (§1)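 Values give the log-two fold change in thermal stability against solvent controls, from duplicates. Crude K562 extract at 1 mg/mL protein, made by dounce homogenisation in PBS pH 7.4 with 1 mM MgCl2, was treated with 10 μM compound for 30 min. After 3 min heating across 48°C-58°C, aliquots were pooled, adjusted to 0.5% NP-40 at 4°C and centrifuged at 21,000xg for 90 min. The supernatant was measured by TMTpro 16plex LC-MS/MS with channel sums equalised.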

Tubastatin A = compound: CN1CCc2c(c3ccccc3n2Cc2ccc(C(=O)NO)cc2)C1 [Tubastatin A]
How it was run: as §1

[1] = compound: CNC(=O)C1=CC=CC=C1NC2=NC(=NC=C2Cl)NC3=C(C=C(C=C3)N4CCOCC4)OC
How it was run: as §1

defactinib = compound: CNC(=O)c1ccc(Nc2ncc(C(F)(F)F)c(NCc3nccnc3N(C)S(C)(=O)=O)n2)cc1 [defactinib]
How it was run: as §1

[2] = compound: CNc1nc(-c2ccc3c(N)n[nH]c3c2)cc(N2C[C@@H](C(=O)NC3CCCCC3)CC[C@H]2C)n1
How it was run: as §1

encorafenib = compound: COC(=O)N[C@@H](C)CNc1nccc(-c2cn(C(C)C)nc2-c2cc(Cl)cc(NS(C)(=O)=O)c2F)n1 [encorafenib]
How it was run: as §1

[3] = compound: COC(=O)[C@H](CCSC)NC(=O)C1=C(C=C(C=C1)NC[C@H](CS)N)C2=CC=CC=C2
How it was run: as §1

alisertib = compound: COc1cc(Nc2ncc3c(n2)-c2ccc(Cl)cc2C(c2c(F)cccc2OC)=NC3)ccc1C(=O)O [alisertib]
How it was run: as §1

[4] = compound: COc1cc2nc(-c3cc(F)ccc3O)nc(N[C@@H]3CNC[C@H]3C(C)(C)O)c2cc1OC
How it was run: as §1

gefitinib = compound: COc1cc2ncnc(Nc3ccc(F)c(Cl)c3)c2cc1OCCCN1CCOCC1 [gefitinib]
How it was run: as §1

lapatinib = compound: CS(=O)(=O)CCNCc1ccc(-c2ccc3ncnc(Nc4ccc(OCc5cccc(F)c5)c(Cl)c4)c3c2)o1 [lapatinib]
How it was run: as §1

pictilisib = compound: CS(=O)(=O)N1CCN(Cc2cc3nc(-c4cccc5[nH]ncc45)nc(N4CCOCC4)c3s2)CC1 [pictilisib]
How it was run: as §1

crizotinib = compound: C[C@@H](Oc1cc(-c2cnn(C3CCNCC3)c2)cnc1N)c1c(Cl)ccc(F)c1Cl [crizotinib]
How it was run: as §1

[5] = compound: C[C@H](C1=CC=C(C=C1)C(=O)NC2=C3C=CNC3=NC=C2)N
How it was run: as §1

duvelisib = compound: C[C@H](Nc1ncnc2nc[nH]c12)c1cc2cccc(Cl)c2c(=O)n1-c1ccccc1 [duvelisib]
How it was run: as §1

gandotinib = compound: Cc1cc(Nc2cc(CN3CCOCC3)c3nc(C)c(Cc4ccc(Cl)cc4F)n3n2)n[nH]1 [gandotinib]
How it was run: as §1

tozasertib = compound: Cc1cc(Nc2cc(N3CCN(C)CC3)nc(Sc3ccc(NC(=O)C4CC4)cc3)n2)n[nH]1 [tozasertib]
How it was run: as §1

doramapimod = compound: Cc1ccc(-n2nc(C(C)(C)C)cc2NC(=O)Nc2ccc(OCCN3CCOCC3)c3ccccc23)cc1 [doramapimod]
How it was run: as §1

bafetinib = compound: Cc1ccc(NC(=O)c2ccc(CN3CC[C@H](N(C)C)C3)c(C(F)(F)F)c2)cc1Nc1nccc(-c2cncnc2)n1 [bafetinib]
How it was run: as §1

[6] = compound: Cc1cccc(CC(=O)N2CCc3c2ccc(-c2cn(C)c4ncnc(N)c24)c3F)n1
How it was run: as §1

Measured: log2 fold change

ANAPC5 (UniProt Q9UJX4)
inactive: alvocidib 0.018 | Tubastatin A -0.104 | [1] 0.022 | defactinib -0.012 | [2] -0.022 | encorafenib 0.039 | [3] -0.058 | alisertib 0.001 | [4] 0.002 | gefitinib 0.017 | lapatinib -0.01 | pictilisib -0.017 | crizotinib -0.034 | [5] -0.033 | duvelisib 0.005 | gandotinib -0.025 | tozasertib 0.019 | doramapimod 0.013 | bafetinib -0.043 | [6] 0.036

AMMECR1 (UniProt Q9Y4X0)
inactive: alvocidib -0.014 | Tubastatin A 0.022 | [1] 0.02 | defactinib 0.02 | [2] 0.003 | encorafenib 0.02 | [3] -0.01 | alisertib -0.031 | [4] 0.011 | gefitinib -0.019 | lapatinib 0.005 | pictilisib -0.013 | crizotinib -0.011 | [5] -0.027 | duvelisib 0.022 | gandotinib -0.019 | tozasertib 0.039 | doramapimod -0.009 | bafetinib -0.04 | [6] 0.037

ANXA1 (UniProt P04083)
inactive: alvocidib -0.025 | Tubastatin A -0.005 | [1] -0.021 | defactinib -0.007 | [2] -0.055 | encorafenib -0.021 | [3] 0.028 | alisertib 0.001 | [4] 0.008 | gefitinib -0.012 | lapatinib 0.005 | pictilisib 0.013 | crizotinib 0.018 | [5] -0.013 | duvelisib 0.016 | gandotinib -0.005 | tozasertib 0.012 | doramapimod 0.008 | bafetinib 0.038 | [6] 0.028

ANK3 (UniProt Q12955)
inactive: alvocidib -0.015 | Tubastatin A -0.037 | [1] 0.026 | defactinib 0.017 | [2] -0.008 | encorafenib 0.03 | [3] 0.043 | alisertib -0.001 | [4] 0.029 | gefitinib -0.036 | lapatinib -0.01 | pictilisib -0.033 | crizotinib -0.057 | [5] -0.062 | duvelisib -0.013 | gandotinib 0.014 | tozasertib 0.001 | doramapimod 0.036 | bafetinib -0.05 | [6] 0.041

ANKRD13D isoform 3 (UniProt Q6ZTN6)
inactive: alvocidib -0.038 | Tubastatin A -0.103 | [1] 0.059 | defactinib 0.157 | [2] 0.033 | encorafenib -0.169 | [3] -0.036 | alisertib -0.019 | [4] -0.029 | gefitinib 0 | lapatinib 0.027 | pictilisib -0.063 | crizotinib -0.093 | [5] 0.021 | duvelisib -0.024 | gandotinib 0 | tozasertib 0.169 | doramapimod 0.061 | bafetinib -0.078 | [6] -0.028

ANKRD28 (UniProt O15084)
inactive: alvocidib -0.006 | Tubastatin A -0.058 | [1] -0.025 | defactinib 0.007 | [2] 0.002 | encorafenib 0.015 | [3] 0.035 | alisertib 0.016 | [4] -0.013 | gefitinib -0.01 | lapatinib 0.006 | pictilisib 0.021 | crizotinib -0.06 | [5] -0.003 | duvelisib -0.012 | gandotinib -0.005 | tozasertib -0.008 | doramapimod 0.066 | bafetinib -0.015 | [6] 0

ANKFY1 isoform 4 (UniProt Q9P2R3)
inactive: alvocidib -0.009 | Tubastatin A -0.038 | [1] 0.002 | defactinib 0.018 | [2] 0.004 | encorafenib -0.024 | [3] 0.102 | alisertib -0.038 | [4] 0.002 | gefitinib 0.003 | lapatinib -0.005 | pictilisib -0.05 | crizotinib -0.081 | [5] -0.005 | duvelisib 0.006 | gandotinib -0.105 | tozasertib -0.005 | doramapimod 0.028 | bafetinib -0.055 | [6] 0.018

ANXA3 (UniProt P12429)
inactive: alvocidib -0.006 | Tubastatin A -0.038 | [1] -0.014 | defactinib 0.011 | [2] -0.087 | encorafenib -0.013 | [3] 0.063 | alisertib -0.011 | [4] -0.006 | gefitinib 0.004 | lapatinib 0.006 | pictilisib -0.004 | crizotinib 0.005 | [5] -0.015 | duvelisib -0.025 | gandotinib -0.011 | tozasertib 0.018 | doramapimod 0.023 | bafetinib -0.02 | [6] 0.001

ANXA6 (UniProt P08133)
inactive: alvocidib -0.032 | Tubastatin A 0.008 | [1] -0.014 | defactinib -0.027 | [2] -0.037 | encorafenib -0.034 | [3] 0.051 | alisertib 0.005 | [4] -0.002 | gefitinib -0.007 | lapatinib 0.006 | pictilisib -0.034 | crizotinib -0.014 | [5] -0.091 | duvelisib 0.005 | gandotinib 0.014 | tozasertib 0.044 | doramapimod 0.022 | bafetinib -0.051 | [6] 0.084

ALDOA (UniProt P04075)
inactive: alvocidib 0.011 | Tubastatin A 0.044 | [1] 0.006 | defactinib -0.002 | [2] 0.007 | encorafenib -0.044 | [3] -0.054 | alisertib 0.004 | [4] -0.009 | gefitinib -0.051 | lapatinib 0.025 | pictilisib 0 | crizotinib 0.006 | [5] -0.032 | duvelisib -0.015 | gandotinib 0.052 | tozasertib -0.002 | doramapimod 0.019 | bafetinib 0.043 | [6] 0.02

ALYREF (UniProt Q86V81)
inactive: alvocidib 0.065 | Tubastatin A 0.112 | [1] -0.025 | defactinib -0.012 | [2] 0.059 | encorafenib 0.013 | [3] -0.062 | alisertib 0.04 | [4] -0.026 | gefitinib 0.014 | lapatinib 0.02 | pictilisib 0.027 | crizotinib 0.051 | [5] 0.13 | duvelisib -0.006 | gandotinib -0.011 | tozasertib -0.035 | doramapimod -0.021 | bafetinib 0.047 | [6] -0.065

ALG8 (UniProt Q9BVK2)
inactive: alvocidib 0.004 | Tubastatin A -0.118 | [1] -0.007 | defactinib 0.001 | [2] -0.012 | encorafenib 0.04 | [3] -0.09 | alisertib 0.076 | [4] -0.019 | gefitinib 0.103 | lapatinib -0.043 | pictilisib -0.043 | crizotinib 0.017 | [5] -0.211 | duvelisib -0.013 | gandotinib 0 | tozasertib 0.116 | doramapimod -0.06 | bafetinib -0.08 | [6] 0.087

ANO6 (UniProt Q4KMQ2)
inactive: alvocidib -0.018 | Tubastatin A 0.022 | [1] 0.03 | defactinib 0.029 | [2] -0.015 | encorafenib 0.015 | [3] 0.085 | alisertib 0.04 | [4] -0.014 | gefitinib -0.06 | lapatinib -0.024 | pictilisib -0.064 | crizotinib 0.001 | [5] -0.002 | duvelisib -0.057 | gandotinib -0.028 | tozasertib -0.029 | doramapimod 0.001 | bafetinib -0.056 | [6] 0.009

Reprinted from above (four entries):
ANXA6 (UniProt P08133)
inactive: alvocidib -0.032 | Tubastatin A 0.008 | [1] -0.014 | defactinib -0.027 | [2] -0.037 | encorafenib -0.034 | [3] 0.051 | alisertib 0.005 | [4] -0.002 | gefitinib -0.007 | lapatinib 0.006 | pictilisib -0.034 | crizotinib -0.014 | [5] -0.091 | duvelisib 0.005 | gandotinib 0.014 | tozasertib 0.044 | doramapimod 0.022 | bafetinib -0.051 | [6] 0.084

ALDOA (UniProt P04075)
inactive: alvocidib 0.011 | Tubastatin A 0.044 | [1] 0.006 | defactinib -0.002 | [2] 0.007 | encorafenib -0.044 | [3] -0.054 | alisertib 0.004 | [4] -0.009 | gefitinib -0.051 | lapatinib 0.025 | pictilisib 0 | crizotinib 0.006 | [5] -0.032 | duvelisib -0.015 | gandotinib 0.052 | tozasertib -0.002 | doramapimod 0.019 | bafetinib 0.043 | [6] 0.02

ALYREF (UniProt Q86V81)
inactive: alvocidib 0.065 | Tubastatin A 0.112 | [1] -0.025 | defactinib -0.012 | [2] 0.059 | encorafenib 0.013 | [3] -0.062 | alisertib 0.04 | [4] -0.026 | gefitinib 0.014 | lapatinib 0.02 | pictilisib 0.027 | crizotinib 0.051 | [5] 0.13 | duvelisib -0.006 | gandotinib -0.011 | tozasertib -0.035 | doramapimod -0.021 | bafetinib 0.047 | [6] -0.065

ALG8 (UniProt Q9BVK2)
inactive: alvocidib 0.004 | Tubastatin A -0.118 | [1] -0.007 | defactinib 0.001 | [2] -0.012 | encorafenib 0.04 | [3] -0.09 | alisertib 0.076 | [4] -0.019 | gefitinib 0.103 | lapatinib -0.043 | pictilisib -0.043 | crizotinib 0.017 | [5] -0.211 | duvelisib -0.013 | gandotinib 0 | tozasertib 0.116 | doramapimod -0.06 | bafetinib -0.08 | [6] 0.087

The list continues:

AP1S2 isoform 2 (UniProt P56377)
inactive: alvocidib -0.107 | Tubastatin A -0.036 | [1] -0.017 | defactinib 0.022 | [2] -0.146 | encorafenib 0.089 | [3] -0.01 | alisertib 0.045 | [4] -0.002 | gefitinib 0.034 | lapatinib -0.009 | pictilisib 0.004 | crizotinib -0.011 | [5] -0.351 | duvelisib 0.035 | gandotinib 0.058 | tozasertib 0.04 | doramapimod 0.182 | bafetinib 0.01 | [6] 0.121

ANXA11 (UniProt P50995)
inactive: alvocidib -0.025 | Tubastatin A 0.017 | [1] 0.009 | defactinib -0.012 | [2] -0.019 | encorafenib -0.004 | [3] 0.027 | alisertib 0.015 | [4] -0.015 | gefitinib -0.014 | lapatinib -0.005 | pictilisib -0.008 | crizotinib 0.001 | [5] -0.044 | duvelisib -0.022 | gandotinib 0.008 | tozasertib 0.026 | doramapimod 0.012 | bafetinib -0.03 | [6] 0.039

ALDOC (UniProt P09972)
inactive: alvocidib 0.008 | Tubastatin A 0.013 | [1] -0.005 | defactinib 0.029 | [2] -0.016 | encorafenib -0.012 | [3] -0.047 | alisertib 0.005 | [4] -0.027 | gefitinib -0.031 | lapatinib 0.069 | pictilisib 0.035 | crizotinib 0.061 | [5] -0.037 | duvelisib 0.005 | gandotinib -0.009 | tozasertib -0.009 | doramapimod -0.008 | bafetinib 0.271 | [6] -0.04
